# PubChem BioAssay AID493014 (National Center for Advancing Translational Sciences (NCATS), 2011)
# “And” between values parts separate entries of the source, which are not always exact repeats. Identical values can stand only once. The list shows a part of the results. Shown are side measurements of this screen, not its main read-out; they come without a call. Compounds called inactive in the main read-out are mostly missing here. Words in brackets tell the shape of the fitted curve; partial curves, single points and poor fits give uncertain potencies.
# Assay: qHTS Assay to Find Inhibitors of Chronic Active B-Cell Receptor Signaling
# Settings: ABC-DLBCL IkBa-CBG/CBR reporter, luminescence ratio (green luciferase fused to IkBa over red control in TMD8 lymphoma cells), 4 h
# Method in brief: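 TMD8 ABC-DLBCL cells carrying doxycycline-inducible green luciferase fused to IkappaBalpha plus unfused red luciferase were exposed to compounds (up to 46 uM) for 4 hrs at 37C. Activity came from the overlap-corrected green/red luminescence ratio.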
# [1] = measured here: CBR red luminescence, cell number
# [2] = measured here: IkBa-CBG green luminescence
Compound,AC50 [1],AC50 [2]
COc1cccc(OC)c1C(=O)OCC(=O)NC1CCCCCC1,"32.6 µM [falling, single point]",
O=c1[nH]c2ccccc2nc1/C=C/c1ccccc1,"7.94 µM [falling, partial curve, poor fit]",
COC(=O)c1ccc(NC(=O)CSc2nnc(-c3ccncc3)n2N)cc1,"35.5 µM [falling, single point]",
CCn1cc(C(=O)NCc2ccc3c(c2)OCO3)c(=O)c2cc(F)c(N3CCN(C(=O)c4ccco4)CC3)cc21,"13 µM [rising, single point]",
CCOC(=O)N1CCC(NC(=O)CCN2C(=O)COc3ccccc32)CC1,"20.6 µM [rising, single point]",
CCn1cc(C(=O)N(C)c2ccccc2F)c2cc(OC)c(OC)cc2c1=O,"25.1 µM [falling, single point]",
O=C(NCCc1ccc2c(c1)OCCO2)c1cccc(F)c1,"16.4 µM [falling, partial curve]",
CC(=O)N(C)c1nc(N)n(-c2ccccc2)n1,"25.1 µM [falling, partial curve, poor fit]",
O=C(Nc1ncccc1Cl)c1cc2ccccc2o1,"11.2 µM [falling, partial curve, poor fit]",
COc1cc2cc(C(c3nnnn3Cc3ccc(F)cc3)N3CCCCCC3)c(=O)[nH]c2cc1OC (stereo unspecified),"9.2 µM [falling, partial curve]",
CC1(C)OC(=O)C(=NNc2ccc(C(=O)O)cc2)C(=O)O1,"10 µM [falling, partial curve]",
COc1ccc(OCC(=O)Nc2ccc(C(=O)Nc3ccccc3C(=O)O)cc2)cc1,"12.6 µM [falling, partial curve]",
CCN(CC)CCN1C(=O)c2ccccc2NC1c1cc(OC)c(OC)c(OC)c1 (stereo unspecified),"14.1 µM [falling, single point]",
C/C(CC(=O)Nc1ccc(Cl)c(Cl)c1)=N\NC(=O)C(=O)N1CCCCC1,"35.5 µM [falling, single point]",
CCCOc1cccc(C2C(C(=O)c3ccc(C)o3)=C(O)C(=O)N2c2nc(C)c(C(C)=O)s2)c1 (stereo unspecified),"10 µM [falling, partial curve, poor fit]",
O=C(O)c1ccccc1SCC(=O)N1CCCCC1,"4.47 µM [rising, full curve, poor fit]",
O=C(c1ccco1)N(CC1CCCO1)c1nc(-c2ccccc2)cs1 (stereo unspecified),"10 µM [rising, partial curve, poor fit]",
CCOC(=O)c1c(CS(=O)(=O)c2ccccc2)n(C)c2cc(Br)c(O)cc12,"12.6 µM [falling, single point]",
CC(C)n1cnc2c(NCc3ccccc3)cc(N[C@@H](CO)Cc3ccccc3)cc21,"20.6 µM [falling, single point]",
O=[N+]([O-])c1ccc(Cl)cc1CNc1ccc(F)c(F)c1,"23.1 µM [rising, partial curve]",
Cc1nc2c(-c3ccc(Cl)cc3)cnn2c(N)c1-c1ccc(F)cc1,"1.58 µM [rising, partial curve, poor fit]",

Compound,AC50 [1],AC50 [2]
CN(C)/C=N/c1ncc(C(=O)c2ccccc2)s1,"8.2 µM [falling, partial curve, poor fit]",
O=C(c1sccc1Br)N1CCN(Cc2ccc3c(c2)OCO3)CC1,"2 µM [rising, partial curve]",
COc1cc(/C=C/C(=O)OCC(=O)Nc2ccc(S(=O)(=O)N3CCCC3)cc2)ccc1O,"2.59 µM [falling, partial curve, poor fit]",
CN(C)CCNC(=O)c1cc2sc3ccccc3c2s1,"28.2 µM [falling, single point]",
N/C(=N\OC(=O)c1ccc([N+](=O)[O-])cc1)c1ccccn1,"2.51 µM [falling, full curve]",
CCCn1c(C)cc(/C=C(\C#N)C(=O)OCC(=O)Nc2cccc(S(N)(=O)=O)c2)c1C,"29.1 µM [falling, single point]",
Cc1ccc(Nc2nc(-c3ccccc3)cs2)nc1,"0.0794 µM [falling, full curve]",
CC1CCCCN1C(=O)c1cc(Cl)ccc1[N+](=O)[O-] (stereo unspecified),"4.61 µM [falling, partial curve, poor fit]",
CCCc1noc(-c2ccc(-c3ccccc3)cc2)n1,"35.5 µM [rising, single point]",
Cc1cc(C)nc(NC(=O)/C=C/c2ccccc2Cl)c1,"18.4 µM [falling, partial curve]",
COc1cccc(C2(O)CCN(CC(=O)NCC3CC3)CC2)c1,"35.5 µM [rising, partial curve, poor fit]",
CS(=O)(=O)c1ncc(Cl)c(C(=O)Nc2ccc(OC(F)F)cc2)n1,"10 µM [falling, partial curve, poor fit]","15.8 µM [rising, partial curve, poor fit]"
O=C(Nc1nccs1)c1ccc2c(=O)n3c(nc2c1)CCCCC3,"18.4 µM [falling, partial curve, poor fit]","18.4 µM [rising, partial curve, poor fit]"
O=C(Nc1ccc(F)cc1F)c1csc(-c2ccncc2)n1,"35.5 µM [falling, single point]",
COc1ccc(NC(=O)COC(=O)CCc2nc3ccccc3c(=O)[nH]2)c(OC)c1,"0.58 µM [rising, partial curve, poor fit]",
Cc1cc(C(=O)CSc2nc3ccccc3n2C)c(C)n1C,"8.2 µM [falling, partial curve, poor fit]",
N#C/C(=C\c1ccc(OCC(N)=O)cc1)C(=O)NC1CC1,"2.24 µM [falling, partial curve, poor fit]",
O=C(Nc1ccccc1)C1=C[C@H](C2CCCCC2)C[C@H](OCc2ccc(CO)cc2)O1,"35.5 µM [falling, single point]",
CCNC(=O)COc1ccc(/C=C2\COc3ccccc3C2=O)cc1OC,"7.94 µM [falling, partial curve]",
Cc1c(C#N)c2ncn(Cc3ccccc3)c(=O)c2n1-c1ccccc1,"8.91 µM [rising, single point]",
O=C(Nc1cccnc1)c1ccccc1-c1ccccc1,"0.562 µM [rising, full curve, poor fit]",

Compound,AC50 [1],AC50 [2]
CSC(=O)CC(=O)NC(=O)c1ccccc1,"16.4 µM [falling, single point]",
c1csc(CNc2ncnc3ccc(-c4ccc5c(c4)OCCO5)cc23)c1,"29.1 µM [falling, single point] and 23.1 µM [falling, single point]",
O=C(O)CCCc1nc2ccccc2s1,"0.58 µM [rising, full curve, poor fit]",
COc1ccccc1NC(=S)N(CCc1c(C)[nH]c2ccccc12)Cc1cccs1,"3.26 µM [rising, single point]",
CC(=O)Oc1ccc(N2C(=O)CC(N3CCOCC3)C2=O)cc1 (stereo unspecified),"14.1 µM [falling, single point]",
COc1cccc(CC(=O)Nc2nc(-c3ccc(OC)c(OC)c3)cs2)c1,"35.5 µM [falling, single point]",
Cc1c(C(=O)Nc2ccc3c(c2)OCCO3)oc2ccc(Br)cc12,"29.1 µM [falling, partial curve, poor fit]",
O=C(CSc1nnc(SCc2ccc(Cl)cc2)s1)c1ccc2c(c1)OCO2,"3.26 µM [rising, partial curve, poor fit]",
O=C(NCc1ccccc1)c1nc(S(=O)(=O)Cc2ccccc2)ncc1Cl,"8.91 µM [falling, partial curve, poor fit]","12.6 µM [rising, single point]"
CCCCNCCCOc1cccc(Cl)c1Cl,"4.61 µM [falling, partial curve, poor fit]",
Cc1cc(C(=O)N/N=C/c2ccc([N+](=O)[O-])o2)c(C)o1,"22.4 µM [falling, single point]",
COc1cccc(-n2c(C)nn(CCOc3ccccc3)c2=O)c1,"35.5 µM [rising, single point]",
O=C(NCCc1ccccc1)c1ccccc1F,"12.6 µM [falling, single point]",
Cc1cccc(NC(=O)C(C)Oc2ccccc2C)n1 (stereo unspecified),"29.1 µM [falling, single point]",
C/C(=N\Nc1nncc2ccccc12)c1ccc(Cl)c([N+](=O)[O-])c1,"10 µM [falling, partial curve, poor fit]",
COc1ccccc1N=Nc1c(O)[nH]c2ccc(Br)cc12,"12.6 µM [falling, partial curve, poor fit]",
CC1=C(C(N)=O)C(c2ccc(C)o2)C(C(N)=O)=C(C)N1,"0.517 µM [falling, full curve, poor fit]",
CC[C@]12c3[nH]c4cc(CCC(=O)N(C)C)ccc4c3CCN1C(=O)[C@@H](CC(=O)NCCC1=CCCCC1)C[C@@H]2C(=O)N1CCN(C(=O)C2CC2)CC1,"10.3 µM [rising, partial curve]",
Cc1cc2c(NCCc3ccccc3)ncnc2s1,"2.82 µM [rising, single point]",
COc1ccc(C(O)(C(C)C)C(CN2CCOCC2)c2ccc(Cl)cc2)cc1 (stereo unspecified),"4.47 µM [falling, full curve]",
COC(=O)c1ccc(NC(=O)CCC(=O)c2ccc(F)cc2)cc1,"0.282 µM [rising, full curve, poor fit]",
